For this assay, the target named is bovine serum albumin (BSA) (bovine) (UniProt P02769). The assay can be described thus: ELISA.

Protein sequences, listed by entry. Tags and fused reporters are not part of them. Residues count along the entry.
UniProt P02769, residues 25-607: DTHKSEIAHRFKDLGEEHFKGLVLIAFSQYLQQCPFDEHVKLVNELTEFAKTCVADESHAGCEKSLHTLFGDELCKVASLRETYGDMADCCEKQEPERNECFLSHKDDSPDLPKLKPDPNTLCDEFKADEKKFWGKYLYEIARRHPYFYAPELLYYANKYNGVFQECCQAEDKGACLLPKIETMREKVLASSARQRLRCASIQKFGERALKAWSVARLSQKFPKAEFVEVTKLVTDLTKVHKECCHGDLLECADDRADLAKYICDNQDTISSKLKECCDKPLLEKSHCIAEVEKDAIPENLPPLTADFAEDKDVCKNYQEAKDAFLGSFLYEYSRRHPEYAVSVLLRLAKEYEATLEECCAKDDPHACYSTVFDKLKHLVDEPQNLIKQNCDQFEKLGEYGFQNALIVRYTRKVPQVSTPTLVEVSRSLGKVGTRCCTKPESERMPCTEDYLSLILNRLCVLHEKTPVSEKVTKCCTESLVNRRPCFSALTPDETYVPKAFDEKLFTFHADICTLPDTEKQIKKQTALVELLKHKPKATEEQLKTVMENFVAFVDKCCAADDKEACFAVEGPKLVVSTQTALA
UniProt Q14520, residues 24-291: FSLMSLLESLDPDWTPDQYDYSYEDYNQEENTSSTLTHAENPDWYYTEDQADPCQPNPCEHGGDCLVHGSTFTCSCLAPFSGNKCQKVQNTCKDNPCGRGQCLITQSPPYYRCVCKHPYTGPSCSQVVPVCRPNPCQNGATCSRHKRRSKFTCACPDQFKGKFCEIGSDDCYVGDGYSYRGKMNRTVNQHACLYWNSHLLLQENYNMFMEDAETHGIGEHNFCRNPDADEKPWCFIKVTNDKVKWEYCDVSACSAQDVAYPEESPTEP

No constants are given. Whether binding was seen depends on the method and setting.

Take “heavy-chain (HC-) FSAP (residues 24-291) (from UniProt Q14520 24-291) (domain or fragment)”: the binding entry is recorded as “no binding (tested: 0-5 µg/ml)”.

Source of the values: publication doi:10.1101/2025.01.07.631702 (bioRxiv, 2025).
